From patent US20240141352A1, “CHAPERONIN-CONTAINING TCP-1 INHIBITORS FOR THE TREATMENT OF CANCER” (UNIVERSITY OF CENTRAL FLORIDA RESEARCH FOUNDATION, INC., priority 2021, published 2024) come the findings set out here.

Results are given in words; binding and its absence hold for the method and conditions named. Some results given as binding are weak or reduced against the parent protein; the word gives no strength.

The assay has as its target T1, CCT2 subunit (UniProt P78371).
T1 sequence (looked up): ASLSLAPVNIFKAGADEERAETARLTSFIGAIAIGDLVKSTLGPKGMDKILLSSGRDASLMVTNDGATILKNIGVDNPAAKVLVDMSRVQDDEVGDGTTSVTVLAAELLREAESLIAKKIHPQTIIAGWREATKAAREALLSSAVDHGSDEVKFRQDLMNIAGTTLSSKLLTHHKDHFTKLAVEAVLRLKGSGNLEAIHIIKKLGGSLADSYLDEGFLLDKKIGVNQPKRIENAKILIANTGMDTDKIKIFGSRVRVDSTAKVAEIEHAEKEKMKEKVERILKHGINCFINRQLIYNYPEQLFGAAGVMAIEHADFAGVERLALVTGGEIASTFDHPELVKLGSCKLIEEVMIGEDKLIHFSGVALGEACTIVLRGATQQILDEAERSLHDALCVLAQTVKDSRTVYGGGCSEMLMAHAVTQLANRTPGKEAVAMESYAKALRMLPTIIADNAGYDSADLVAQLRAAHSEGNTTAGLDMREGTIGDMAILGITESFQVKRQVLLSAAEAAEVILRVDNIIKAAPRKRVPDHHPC
Briefly: method not described.

Take VTIFVAGVLTASLTIWKKMG [CT20p]: the binding entry is reported as “binds”.
